Measured values as given in paper PMC3457940.
No constants are given. Whether binding was seen depends on the method and setting. Binding seen in cells or lysates may run through a third protein. Some entries that bind do so weakly or less than the wild type. For some of these results: Where a sequence is shown, tags or fusion partners need not be part of it.

Protein sequences, listed by entry. Tags and fused reporters are not part of them.
UniProt P27986: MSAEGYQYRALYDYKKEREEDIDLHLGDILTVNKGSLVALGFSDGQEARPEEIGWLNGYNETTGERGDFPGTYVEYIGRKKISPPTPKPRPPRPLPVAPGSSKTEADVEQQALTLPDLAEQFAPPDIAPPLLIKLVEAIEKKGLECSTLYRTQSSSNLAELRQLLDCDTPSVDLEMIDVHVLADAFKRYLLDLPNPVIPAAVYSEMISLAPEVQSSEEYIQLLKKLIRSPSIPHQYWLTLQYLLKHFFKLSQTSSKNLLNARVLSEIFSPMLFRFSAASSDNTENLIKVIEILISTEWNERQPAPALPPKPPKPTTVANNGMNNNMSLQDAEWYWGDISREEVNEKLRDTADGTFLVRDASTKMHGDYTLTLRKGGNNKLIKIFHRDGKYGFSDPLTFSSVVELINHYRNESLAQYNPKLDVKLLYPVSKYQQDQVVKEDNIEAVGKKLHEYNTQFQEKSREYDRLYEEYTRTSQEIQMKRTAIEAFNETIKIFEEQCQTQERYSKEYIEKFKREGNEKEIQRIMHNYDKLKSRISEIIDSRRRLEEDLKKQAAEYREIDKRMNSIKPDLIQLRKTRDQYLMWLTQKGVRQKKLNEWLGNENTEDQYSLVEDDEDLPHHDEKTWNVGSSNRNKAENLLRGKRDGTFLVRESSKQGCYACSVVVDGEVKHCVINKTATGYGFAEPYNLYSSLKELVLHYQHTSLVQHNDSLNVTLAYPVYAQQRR

Legend:
[1] = molecular target: PI3K regulatory subunit p85α (human (endogenous in H358)) (UniProt P27986); experiment: co-IP; H358 cells transfected with full length or truncated His-PPARβ/δ, lysed in RIPA buffer; immunoprecipitation with anti-p85α serum and A/G sepharose beads; His-PPARβ/δ detected with anti-His antibody
[2] = molecular target: full length His-PPARβ/δ (PPARβ/δ 1–441) (UniProt Q03181); experiment: pull-down; H358 cells transfected with His-PPARβ/δ, incubated with and without GW501516 for 18 h, lysed in RIPA buffer; His-PPARβ/δ pulled down with His-select nickel affinity gel; immunoblot for PPARβ/δ and p85α

Molecule | binding [1] | binding [2]
His-tagged truncated PPARβ/δ retaining the N-terminal part (PPARβ/δ 1–168) (from UniProt Q03181 1-168) (domain or fragment) | binds | 
full length His-PPARβ/δ (PPARβ/δ 1–441) (from UniProt Q03181 1-441) | binds | 

Other lines, results leading:

binding [1] | binding [2] | Molecule
 | binds | PI3K regulatory subunit p85α (from UniProt P27986 1-724)
binds |  | His-tagged truncated PPARβ/δ retaining the C-terminal part (PPARβ/δ 168–441) (domain or fragment, UniProt Q03181 168-441) YNPQVADLKAFSKHIYNAYLKNFNMTKKKARSILTGKASHTAPFVIHDIETLWQAEKGLVWKQLVNGLPPYKEISVHVFYRCQCTTVETVRELTEFAKSIPSFSSLFLNDQVTLLKYGVHEAIFAMLASIVNKDGLLVANGSGFVTREFLRSLRKPFSDIIEPKFEFAVKFNALELDDSDLALFIAAIILCGDRPGLMNVPRVEAIQDTILRALEFHLQANHPDAQYLFPKLLQKMADLRQLVTEHAQMMQRIKKTETETSLHPLLQEIYKDMY
